Source: article PMC7372886
These are yes or no findings as the source states them, for the method shown. In cells and extracts the contact can be indirect. Here binding means that the protein was enriched with, or labelled near, the bait; the list need not be complete.

Protein sequences, listed by entry. Tags and fused reporters are not part of them.
UniProt P49327: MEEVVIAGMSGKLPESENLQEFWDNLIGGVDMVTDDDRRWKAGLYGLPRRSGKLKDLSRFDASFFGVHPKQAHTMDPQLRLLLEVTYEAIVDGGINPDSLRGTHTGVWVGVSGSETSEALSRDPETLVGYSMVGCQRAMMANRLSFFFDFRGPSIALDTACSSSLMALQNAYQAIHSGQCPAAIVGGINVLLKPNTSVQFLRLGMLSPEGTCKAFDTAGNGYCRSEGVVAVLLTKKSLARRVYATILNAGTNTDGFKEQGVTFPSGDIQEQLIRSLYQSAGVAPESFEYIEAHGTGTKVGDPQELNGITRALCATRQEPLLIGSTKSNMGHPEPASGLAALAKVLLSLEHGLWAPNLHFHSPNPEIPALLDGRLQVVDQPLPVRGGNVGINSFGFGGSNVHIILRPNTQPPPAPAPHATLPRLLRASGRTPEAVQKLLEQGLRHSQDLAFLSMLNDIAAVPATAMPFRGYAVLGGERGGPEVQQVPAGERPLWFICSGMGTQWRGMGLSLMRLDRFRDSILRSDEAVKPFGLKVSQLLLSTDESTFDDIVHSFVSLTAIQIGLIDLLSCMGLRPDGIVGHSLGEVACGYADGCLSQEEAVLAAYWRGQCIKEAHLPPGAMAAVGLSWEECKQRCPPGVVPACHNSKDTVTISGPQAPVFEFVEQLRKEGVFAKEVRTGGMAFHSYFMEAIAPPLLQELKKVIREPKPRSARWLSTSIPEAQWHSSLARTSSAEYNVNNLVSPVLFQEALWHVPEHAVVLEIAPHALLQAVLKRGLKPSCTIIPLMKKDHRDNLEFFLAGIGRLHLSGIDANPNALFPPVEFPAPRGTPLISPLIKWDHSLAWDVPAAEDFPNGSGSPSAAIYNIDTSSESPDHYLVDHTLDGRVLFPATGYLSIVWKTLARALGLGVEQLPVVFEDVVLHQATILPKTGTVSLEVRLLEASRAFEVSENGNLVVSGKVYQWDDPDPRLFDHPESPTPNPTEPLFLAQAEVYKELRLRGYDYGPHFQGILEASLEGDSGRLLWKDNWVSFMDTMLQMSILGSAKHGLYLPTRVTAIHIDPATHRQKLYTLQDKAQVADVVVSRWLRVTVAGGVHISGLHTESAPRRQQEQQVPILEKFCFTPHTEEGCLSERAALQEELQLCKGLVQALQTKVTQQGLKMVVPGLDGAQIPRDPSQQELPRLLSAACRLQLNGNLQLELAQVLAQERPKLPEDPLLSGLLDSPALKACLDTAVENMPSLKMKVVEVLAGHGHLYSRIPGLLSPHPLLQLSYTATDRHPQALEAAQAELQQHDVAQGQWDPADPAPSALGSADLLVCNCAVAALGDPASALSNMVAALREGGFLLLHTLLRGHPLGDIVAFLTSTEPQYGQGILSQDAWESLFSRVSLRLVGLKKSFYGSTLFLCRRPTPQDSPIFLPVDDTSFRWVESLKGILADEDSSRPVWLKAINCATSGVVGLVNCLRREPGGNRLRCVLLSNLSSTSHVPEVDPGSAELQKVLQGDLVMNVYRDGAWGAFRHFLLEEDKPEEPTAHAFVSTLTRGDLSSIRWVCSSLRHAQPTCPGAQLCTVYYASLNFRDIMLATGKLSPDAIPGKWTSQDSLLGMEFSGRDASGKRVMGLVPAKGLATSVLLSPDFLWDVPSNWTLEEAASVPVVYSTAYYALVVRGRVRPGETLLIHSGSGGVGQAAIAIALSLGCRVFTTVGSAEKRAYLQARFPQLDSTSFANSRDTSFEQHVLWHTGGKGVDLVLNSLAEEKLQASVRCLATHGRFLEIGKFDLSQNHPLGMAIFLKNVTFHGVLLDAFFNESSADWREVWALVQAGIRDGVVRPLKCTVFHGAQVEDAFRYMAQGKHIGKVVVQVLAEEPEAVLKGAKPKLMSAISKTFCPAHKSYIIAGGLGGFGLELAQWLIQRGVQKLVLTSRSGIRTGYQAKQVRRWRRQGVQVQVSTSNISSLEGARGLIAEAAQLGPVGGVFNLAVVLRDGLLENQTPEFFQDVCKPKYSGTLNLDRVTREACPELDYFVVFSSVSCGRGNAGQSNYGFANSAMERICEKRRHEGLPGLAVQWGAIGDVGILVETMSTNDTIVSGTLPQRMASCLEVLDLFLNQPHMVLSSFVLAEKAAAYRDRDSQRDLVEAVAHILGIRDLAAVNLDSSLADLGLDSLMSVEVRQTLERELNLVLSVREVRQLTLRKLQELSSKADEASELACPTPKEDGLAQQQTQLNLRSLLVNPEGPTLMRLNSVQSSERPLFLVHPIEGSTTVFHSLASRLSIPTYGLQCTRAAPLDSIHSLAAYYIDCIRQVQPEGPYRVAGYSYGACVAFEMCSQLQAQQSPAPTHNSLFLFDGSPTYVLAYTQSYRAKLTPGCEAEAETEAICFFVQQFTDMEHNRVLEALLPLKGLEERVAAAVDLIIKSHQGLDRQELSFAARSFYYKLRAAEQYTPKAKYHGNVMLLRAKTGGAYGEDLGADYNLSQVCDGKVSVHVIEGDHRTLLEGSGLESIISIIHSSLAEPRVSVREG

B1: CYTSA protein (protein, UniProt B2RMV2 1-1117)
chain: MKKASRSVGSVPKVSAISKTQTAEKIKPENSSSASTGGKLVKPGTAASLSKTKSSDDLLAGMAGGVTVTNGVKGKKSTCPSAAPSASAPAMTTVENKSKISTGTASSTKRSTSTGNKESSSTRERLRERTRLNQSKKLPSAGQGANDMALAKRSRSRTATECDVRMSKSKSDNQISDRAALEAKVKDLLTLAKTKDVEILHLRNELRDMRAQLGINEDHSEGDEKSEKETIMAHQPTDVESTLLQLQEQNTAIREELNQLKNENRMLKDRLNALGFSLEQRLDNSEKLFGYQSLSPEITPGNQSDGGGTLTSSVEGSAPGSVEDLLSQDENTLMDHQHSNSMDNLDSECSEVYQPLTSSDDALDAPSSSESEGIPSIERSRKGSSGNASEVSVACLTERIHQMEENQHSTSEELQATLQELADLQQITQELNSENERLGEEKVILMESLCQQSDKLEHFSRQIEYFRSLLDEHHISYVIDEDVKSGRYMELEQRYMDLAENARFEREQLLGVQQHLSNTLKMAEQDNKEAQEMIGALKERSHHMERIIESEQKGKAALAATLEEYKATVASDQIEMNRLKAQLENEKQKVAELYSIHNSGDKSDIQDLLESVRLDKEKAETLASSLQEDLAHTRNDANRLQDAIAKVEDEYRAFQEEAKKQIEDLNMTLEKLRSDLDEKETERSDMKETIFELEDEVEQHRAVKLHDNLIISDLENTVKKLQDQKHDMEREIKTLHRRLREESAEWRQFQADLQTAVVIANDIKSEAQEEIGDLKRRLHEAQEKNEKLTKELEEIKSRKQEEERGRVYNYMNAVERDLAALRQGMGLSRRSSTSSEPTPTVKTLIKSFDSASQVPNPAAAAIPRTPLSPSPMKTPPAAAVSPMQRHSISGPISTSKPLTALSDKRPNYGEIPVQEHLLRTSSASRPASLPRVPAMESAKTLSVSRRSSEEMKRDISAQEGASPASLMAMGTTSPQLSLSSSPTASVTPTTRSRIREERKDPLSALAREYGGSKRNALLKWCQKKTEGYQNIDITNFSSSWNDGLAFCALLHTYLPAHIPYQELNSQDKRRNFMLAFQAAESVGIKSTLDINEMVRTERPDWQNVMLYVTAIYKYFET
B2: MYL9 protein (protein, UniProt P24844 1-172)
chain: MSSKRAKAKTTKKRPQRATSNVFAMFDQSQIQEFKEAFNMIDQNRDGFIDKEDLHDMLASLGKNPTDEYLEGMMSEAPGPINFTMFLTMFGEKLNGTDPEDVIRNAFACFDEEASGFIHEDHLRELLTTMGDRFTDEEVDEMYREAPIDKKGNFNYVEFTRILKHGAKDKDD
B3: Junction plakoglobin, isoform CRA_a (protein, UniProt P14923 1-745)
chain: MEVMNLMEQPIKVTEWQQTYTYDSGIHSGANTCVPSVSSKGIMEEDEACGRQYTLKKTTTYTQGVPPSQGDLEYQMSTTARAKRVREAMCPGVSGEDSSLLLATQVEGQATNLQRLAEPSQLLKSAIVHLINYQDDAELATRALPELTKLLNDEDPVVVTKAAMIVNQLSKKEASRRALMGSPQLVAAVVRTMQNTSDLDTARCTTSILHNLSHHREGLLAIFKSGGIPALVRMLSSPVESVLFYAITTLHNLLLYQEGAKMAVRLADGLQKMVPLLNKNNPKFLAITTDCLQLLAYGNQESKLIILANGGPQALVQIMRNYSYEKLLWTTSRVLKVLSVCPSNKPAIVEAGGMQALGKHLTSNSPRLVQNCLWTLRNLSDVATKQEGLESVLKILVNQLSVDDVNVLTCATGTLSNLTCNNSKNKTLVTQNSGVEALIHAILRAGDKDDITEPAVCALRHLTSRHPEAEMAQNSVRLNYGIPAIVKLLNQPNQWPLVKATIGLIRNLALCPANHAPLQEAAVIPRLVQLLVKAHQDAQRHVAAGTQQPYTDGVRMEEIVEGCTGALHILARDPMNRMEIFRLNTIPLFVQLLYSSVENIQRVAAGVLCELAQDKEAADAIDAEGASAPLMELLHSRNEGTATYAAAVLFRISEDKNPDYRKRVSVELTNSLFKHDPAAWEAAQSMIPINEPYGDDMDATYRPMYSSDVPLDPLEMHMDMDGDYPIDTYSDGLRPPYPTADHMLA
B4: Tropomodulin-3 (protein, UniProt Q9NYL9 1-352)
chain: MALPFRKDLEKYKDLDEDELLGNLSETELKQLETVLDDLDPENALLPAGFRQKNQTSKSTTGPFDREHLLSYLEKEALEHKDREDYVPYTGEKKGKIFIPKQKPVQTFTEEKVSLDPELEEALTSASDTELCDLAAILGMHNLITNTKFCNIMGSSNGVDQEHFSNVVKGEKILPVFDEPPNPTNVEESLKRTKENDAHLVEVNLNNIKNIPIPTLKDFAKALETNTHVKCFSLAATRSNDPVATAFAEMLKVNKTLKSLNVESNFITGVGILALIDALRDNETLAELKIDNQRQQLGTAVELEMAKMLEENTNILKFGYQFTQQGPRTRAANAITKNNDLVRKRRVEGDHQ
B5: Uveal autoantigen with coiled-coil domains and ankyrin repeats (protein, UniProt Q9BZF9 1-1416)
chain: MKSLKSRLRRQDVPGPASSGAAAASAHAADWNKYDDRLMKAAERGDVEKVTSILAKKGVNPGKLDVEGRSVFHVVTSKGNLECLNAILIHGVDITTSDTAGRNALHLAAKYGHALCLQKLLQYNCPTEHADLQGRTALHDAAMADCPSSIQLLCDHGASVNAKDVDGRTPLVLATQMSRPTICQLLIDRGADVNSRDKQNRTALMLGCEYGCRDAVEVLIKNGADISLLDALGHDSSYYARIGDNLDILTLLKTASENTNKGRELWKKGPSLQQRNLTHMQDEVNVKSHQREHQNIQDLEIENEDLKERLRKIQQEQRILLDKVNGLQLQLNEEVMVADDLESEREKLKSLLAAKEKQHEESLRTIEALKNRFKYFESDHLGSGSHFSNRKEDMLLKQGQMYMADSQCTSPGIPAHMQSRSMLRPLELSLPSQTSYSENEILKKELEAMRTFCESAKQDRLKLQNELAHKVAECKALALECERVKEDSDEQIKQLEDALKDVQKRMYESEGKVKQMQTHFLALKEHLTSEAASGNHRLTEELKDQLKDLKVKYEGASAEVGKLRNQIKQNEMIVEEFKRDEGKLIEENKRLQKELSMCEMEREKKGRKVTEMEGQAKELSAKLALSIPAEKFENMKSSLSNEVNEKAKKLVEMEREHEKSLSEIRQLKRELENVKAKLAQHVKPEEHEQVKSRLEQKSGELGKKITELTLKNQTLQKEIEKVYLDNKLLKEQAHNLTIEMKNHYVPLKVSEDMKKSHDAIIDDLNRKLLDVTQKYTEKKLEMEKLLLENDSLSKDVSRLETVFVPPEKHEKEIIALKSNIVELKKQLSELKKKCGEDQEKIHALTSENTNLKKMMSNQYVPVKTHEEVKMTLNDTLAKTNRELLDVKKKFEDINQEFVKIKDKNEILKRNLENTQNQIKAEYISLAEHEAKMSSLSQSMRKVQDSNAEILANYRKGQEEIVTLHAEIKAQKKELDTIQECIKVKYAPIVSFEECERKFKATEKELKDQLSEQTQKYSVSEEEVKKNKQENDKLKKEIFTLQKDLRDKTVLIEKSHEMERALSRKTDELNKQLKDLSQKYTEVKNVKEKLVEENAKQTSEILAVQNLLQKQHVPLEQVEALKKSLNGTIENLKEELKSMQRCYEKEQQTVTKLHQLLENQKNSSVPLAEHLQIKEAFEKEVGIIKASLREKEEESQNKMEEVSKLQSEVQNTKQALKKLETREVVDLSKYKATKSDLETQISSLNEKLANLNRKYEEVCEEVLHAKKKEISAKDEKELLHFSIEQEIKDQKERCDKSLTTITELQRRIQESAKQIEAKDNKITELLNDVERLKQALNGLSQLTYTSGNPTKRQSQLIDTLQHQVKSLEQQLADADRQHQEVIAIYRTHLLSAAQGHMDEDVQEALLQIIQMRQGLVC

molecular target: Fatty acid synthase (human (endogenous in HepG2 and SMMC7721)) (UniProt P49327); assay: affinity purification with mass spectrometry; FASN antibody and Protein A/G agarose beads on whole cell lysates of HepG2 cells transfected with control siRNA or FASN siRNA; eluted proteins iTRAQ-labelled (114, 117 against 118, 121), Nano LC ESI MS/MS

binding	Binder
binds	B1
binds	B2
binds	B3
binds	B4
binds	B5
